In the supplement of paper PMC4604168 (melanoma cell lines):
The list shows a part of the results. Many values rest on one well or one pass, so single values are uncertain.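 The apoptosis fraction was the count of cleaved-PARP antibody-stained nuclei relative to all DNA-stained nuclei, imaged in 1,536-well plates. Screening doses were set so most cells survived, and baseline and induced cleaved-PARP levels vary greatly across cell lines.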

Experiments:
Test in all cases: cleaved PARP positive nuclei fraction relative to DMSO control; melanoma cells; higher = more apoptosis
Settings in all cases: library dose: low library concentration; 72 h
[1] = tested on: 501Mel
[2] = tested on: A101D
[3] = tested on: A2058
[4] = tested on: A375
[5] = tested on: C32
[6] = tested on: CBRC013 (line from a melanoma biopsy)
[7] = tested on: CBRC014 (line from a melanoma biopsy)
[8] = tested on: CBRC016 (line from a melanoma biopsy)
[9] = tested on: CBRC017 (line from a melanoma biopsy)
[10] = tested on: CBRC034 (line from a melanoma biopsy)
[11] = tested on: COLO792
[12] = tested on: COLO800
[13] = tested on: COLO829
[14] = tested on: G361
[15] = tested on: IPC-298
[16] = tested on: IST-MEL1
[17] = tested on: LB2518-MEL
[18] = tested on: LOXIMVI

| SMILES | cleaved PARP positive nuclei fraction [1] [%] | cleaved PARP positive nuclei fraction [2] [%] | cleaved PARP positive nuclei fraction [3] [%] | cleaved PARP positive nuclei fraction [4] [%] | cleaved PARP positive nuclei fraction [5] [%] | cleaved PARP positive nuclei fraction [6] [%] | cleaved PARP positive nuclei fraction [7] [%] | cleaved PARP positive nuclei fraction [8] [%] | cleaved PARP positive nuclei fraction [9] [%] | cleaved PARP positive nuclei fraction [10] [%] | cleaved PARP positive nuclei fraction [11] [%] | cleaved PARP positive nuclei fraction [12] [%] | cleaved PARP positive nuclei fraction [13] [%] | cleaved PARP positive nuclei fraction [14] [%] | cleaved PARP positive nuclei fraction [15] [%] | cleaved PARP positive nuclei fraction [16] [%] | cleaved PARP positive nuclei fraction [17] [%] | cleaved PARP positive nuclei fraction [18] [%] |
| --- | --- | --- | --- | --- | --- | --- | --- | --- | --- | --- | --- | --- | --- | --- | --- | --- | --- | --- |
| NC(=O)Nc1cc(-c2cccc(F)c2)sc1C(=O)N[C@H]1CCCNC1 + CCc1ccc(CCOc2ccc(CC3SC(=O)NC3=O)cc2)nc1 [pioglitazone] (first compound 0.02 µM, partner dose 2 µM) | 86.8 | 43.2 | 53.9 | 279 | 79.6 | 104 | 205 | 45.9 | 96.9 | 97.1 | 102 | 146 | 127 | 23.1 | 112 | 72.2 | 63.9 | 31.5 |
| CC(C)(C)c1cnc(CSc2cnc(NC(=O)C3CCNCC3)s2)o1 + CCN(CC)CCCCNc1ncc2cc(-c3cc(OC)cc(OC)c3)c(NC(=O)NC(C)(C)C)nc2n1 [PD173074] (first compound 0.01 µM, partner dose 0.1 µM) | 98.2 | 44 | 47.7 | 84 | 126 | 199 | 95.4 | 62.3 | 73.3 | 32.8 | 94.2 | 190 | 44.7 | 119 | 108 | 111 | 82.5 | 24 |
| C=CCn1c(=O)c2cnc(Nc3ccc(N4CCN(C)CC4)cc3)nc2n1-c1cccc(C(C)(C)O)n1 + Oc1cc(-c2nc(-c3ccccc3)[nH]c2-c2ccncc2)ccc1Cl [L779450] (first compound 0.02 µM, partner dose 0.2 µM) | 34.9 | 63.2 | 125 | 1500 | 148 | 271 | 155 | 59.1 | 77.4 | 143 | 108 | 60 | 118 | 20.1 | 283 | 46.2 | 123 | 68.7 |
| C[C@@H]1CCN(C(=O)CC#N)C[C@@H]1N(C)c1ncnc2[nH]ccc12 + COc1ccc(COc2ccc(Cc3cnc(N)nc3N)cc2OC)cc1 [GW2580] (first compound 1 µM, partner dose 1 µM) | 68.3 | 170 | 28.5 | 24.5 | 94.2 | 124 | 162 | 70.2 | 123 | 78.6 | 108 | 52.3 | 80.6 | 65.2 | 54.3 | 42.5 | 83.9 | 65.3 |
| OCCn1cc(-c2cnc3nnn(Cc4ccc5ncccc5c4)c3n2)cn1 + COc1cc2ncnc(Nc3ccc(Oc4ccccc4)cc3)c2cc1OC [SrcI1] (first compound 1 µM, partner dose 2 µM) | 72.2 | 55.2 | 83.2 | 36 | 61.2 | 79.6 | 113 | 22.1 | 125 | 89.1 | 85.9 | 92.2 | 122 | 99.7 | 83.7 | 27.7 | 70.6 | 130 |
| O=C(Nc1cccc(Cl)c1)Nc1ncc(CCNc2ncnc3ccsc23)s1 + COc1ccc(COc2ccc(Cc3cnc(N)nc3N)cc2OC)cc1 [GW2580] (first compound 0.0008 µM, partner dose 1 µM) | 51.9 | 102 | 55.1 | 111 | 193 | 106 | 92.7 | 134 | 95.4 | 94.7 | 107 | 134 | 92.4 | 105 | 128 | 95.2 | 94.7 | 36.2 |
| CO[C@@H]1[C@H](N(C)C(=O)c2ccccc2)C[C@H]2O[C@]1(C)n1c3ccccc3c3c4c(c5c6ccccc6n2c5c31)C(=O)NC4 [Midostaurin] + Cn1cc(/C=C2\C(=O)Nc3cccnc32)c2ccccc21 [GW441756] (first compound 0.08 µM, partner dose 0.4 µM) | 34.8 | 208 | 113 | 160 | 91 | 65.7 | 86.9 | 188 | 72.3 | 80.9 | 96.4 | 195 | 78.5 | 88.4 | 57 | 212 | 185 | 80.9 |
| C[C@]1(c2nc3c(C(N)=O)cccc3[nH]2)CCCN1 [Veliparib] + Cc1cc([N+](=O)[O-])ccc1NS(=O)(=O)c1cc(Cl)ccc1Cl [FH535] (first compound 1.4 µM, partner dose 1 µM) | 152 | 72.7 | 158 | 182 | 114 | 103 | 162 | 951 | 432 | 227 | 160 | 90.4 | 103 | 101 | 45 | 111 | 99.5 | 38.2 |
| CC(C)(C)c1cnc(CSc2cnc(NC(=O)C3CCNCC3)s2)o1 + CCCCCCCCCCCC1=C(O)C(=O)C=C(O)C1=O [Embelin] (first compound 0.01 µM, partner dose 1.2 µM) | 128 | 168 | 98 | 105 | 73.7 | 42.7 | 109 | 106 | 92.9 | 250 | 139 | 34.8 | 90.6 | 96.9 | 29.8 | 39.5 | 104 | 47.8 |

Single entries from the list.
Value for OCCn1cc(-c2cnc3nnn(Cc4ccc5ncccc5c4)c3n2)cn1 + COc1cc2ncnc(Nc3ccc(Oc4ccccc4)cc3)c2cc1OC [SrcI1] (first compound 1 µM, partner dose 2 µM) under cleaved PARP positive nuclei fraction [7] [%]: 113
Value for CC(C)(C)c1cnc(CSc2cnc(NC(=O)C3CCNCC3)s2)o1 + CCN(CC)CCCCNc1ncc2cc(-c3cc(OC)cc(OC)c3)c(NC(=O)NC(C)(C)C)nc2n1 [PD173074] (first compound 0.01 µM, partner dose 0.1 µM) under cleaved PARP positive nuclei fraction [16] [%]: 111
